In patent CN108635579A one finds binding data, which are given here for five molecules.

Sequences of proteins named here, by UniProt entry; tags and fusion partners are left off. Residues count along the entry.
UniProt P09038, residues 143-288: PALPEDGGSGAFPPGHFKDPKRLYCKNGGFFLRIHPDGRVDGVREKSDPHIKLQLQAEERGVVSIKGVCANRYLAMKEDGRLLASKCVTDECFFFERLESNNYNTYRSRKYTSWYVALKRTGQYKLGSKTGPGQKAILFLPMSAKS
UniProt P02769, residues 25-607: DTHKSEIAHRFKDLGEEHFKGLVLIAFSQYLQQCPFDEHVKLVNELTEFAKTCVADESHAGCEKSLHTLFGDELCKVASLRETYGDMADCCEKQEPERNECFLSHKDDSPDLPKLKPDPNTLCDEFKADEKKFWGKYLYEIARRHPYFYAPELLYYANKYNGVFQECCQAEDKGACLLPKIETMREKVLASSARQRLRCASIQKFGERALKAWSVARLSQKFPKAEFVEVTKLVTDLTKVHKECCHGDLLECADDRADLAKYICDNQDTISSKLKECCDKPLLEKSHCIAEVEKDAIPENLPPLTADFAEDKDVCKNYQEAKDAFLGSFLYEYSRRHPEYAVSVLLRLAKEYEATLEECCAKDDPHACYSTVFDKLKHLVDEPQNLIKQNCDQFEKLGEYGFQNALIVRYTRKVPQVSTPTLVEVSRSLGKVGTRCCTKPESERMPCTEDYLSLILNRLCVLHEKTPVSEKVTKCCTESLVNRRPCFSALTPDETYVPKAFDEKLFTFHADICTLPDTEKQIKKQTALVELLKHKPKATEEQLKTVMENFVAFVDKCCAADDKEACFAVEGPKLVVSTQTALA

For assay [1], the target named is 重组人碱性成纤维细胞生长因子(bFGF) (human) (UniProt P09038). The assay is described as follows: ELISA, antigen coated 50 ng/well, nanobody 100 ng/well, anti-Flag detection. Background: ELISA stands for enzyme-linked immunosorbent assay.
The target in a further assay is BSA (bovine) (UniProt P02769). Described as above.
The target of assay [2] is 重组人碱性成纤维细胞生长因子(bFGF) (human) (UniProt P09038). The assay is described as follows: competition ELISA, FGFR2 varied 0-1 μg against 100 ng nanobody on 50 ng coated bFGF.

These are yes or no findings as the source states them, for the method shown. Some binding calls cover weakened binding; strength is not graded here.

B1: 抗bFGF纳米抗体 Nb5 (VHH)
VHH: LQESGGGLVQAGGSLRLSCAASGRTFSSGAMGWFRQAPGKEPEFVATITWDGGTTYYADSVKGRYTISRDNAKNTVYLQMNDLKPEDTAVYSCAARSYSEAYYLIGSSDYNYWGQGTQVTVSS
For the molecule B1, the binding result (in assay [1]; with BSA (bovine)) was “binds” in each case.

B2: 抗bFGF纳米抗体 Nb6 (VHH)
VHH: LQESGGDLVQPGGSLRLSCEVSGSNFSINDMGWYRQAPGKRREVVAGISSVGRTMYGDPVKGRFTISRDNAKNMVYLQMNRLKPEDTAVYYCHLYGDYRGTGFWGKGTQVTVSS
For the molecule B2, the binding entry (in assay [1]; with BSA (bovine)) was “binds” throughout.

B3: 抗bFGF纳米抗体 Nb1 (VHH)
VHH: LQESGGDLVQPGGSLRLSCEVSGSNFSNNDMGWYRQAPGKQREVVAGISSVGRTMYGDPVKGRFTISRDNAKNMVYLQMNRLKAKDTAVYYCHLYGDYRGTGFWGKGTQVTVSS
On to B3, for which the binding result (in assay [1]; with BSA (bovine)) was “binds” throughout.

B4: 抗bFGF纳米抗体 Nb2 (VHH)
VHH: LQESGGDLVQPGGSLRLSCEVSGSNFSINDMGWYRQAPGKRREVVAGISSVGRAMYADPVKGRFTISRDNAKNMVYLQMNRLKPEDTAVYYCYLYGDYRGTGFWGKGTQVTVSS
In the case of B4, the binding entry (in assay [2]; in assay [1]; in the assay with BSA (bovine)) was “binds” in each case.

B5: 抗bFGF纳米抗体 Nb3 (VHH)
VHH: LQESGGDLVQPGGSLRLSCEVSGSNFSINDMGWYRQAPGKRREVVAGISSVGRTMYADPVKGRFTISRDNAKNMVYLQMNRLKPEDTAVYYCHLYGDYRGTGFWGKGTQVTVSS
Take B5: the binding result (in assay [1]; with BSA (bovine)) was “binds” each time.
